Assay results from paper PMC5556109, “A combinatorial approach for the discovery of cytochrome P450 2D6 inhibitors from nature” (Scientific Reports, 2017).

Protein sequences, listed by entry. Tags and fused reporters are not part of them.
UniProt P10635, whole entry: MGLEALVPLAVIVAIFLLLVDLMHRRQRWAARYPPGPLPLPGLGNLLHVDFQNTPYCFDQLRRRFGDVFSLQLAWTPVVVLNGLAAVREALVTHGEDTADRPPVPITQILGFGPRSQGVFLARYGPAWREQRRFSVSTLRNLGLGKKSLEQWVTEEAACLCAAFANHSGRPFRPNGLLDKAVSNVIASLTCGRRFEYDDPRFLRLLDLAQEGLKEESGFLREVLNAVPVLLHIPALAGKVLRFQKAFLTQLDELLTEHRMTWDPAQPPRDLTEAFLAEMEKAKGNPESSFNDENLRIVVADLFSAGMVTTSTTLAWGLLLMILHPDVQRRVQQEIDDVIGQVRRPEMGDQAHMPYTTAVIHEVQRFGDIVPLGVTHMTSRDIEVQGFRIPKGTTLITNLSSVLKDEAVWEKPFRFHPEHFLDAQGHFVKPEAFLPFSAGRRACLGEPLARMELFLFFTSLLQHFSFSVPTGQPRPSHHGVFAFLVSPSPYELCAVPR

Biological target: CYP2D6 (Homo sapiens, UniProt P10635)
Settings: recombinant enzyme

## CN[C@H]1CCc2cc(OC)c(OC)c(OC)c2-c2ccc(OC)c(=O)cc21 [Compound 12, Colcemid]
  classification of CYP2D6 inhibition (actives / weak actives / inactives): inactives (key: actives: those compounds were classified as active, which exhibited CYP2D6 IC50 values up to 10 µM; inactives showed less than 50 % total luminescence at a concentration of 100 µM)
